Therapeutic index data for 17 molecules are collected here from patent US10160767B2 (Institute of Pharmacology and Toxicology Academy of …, priority 2014, dated 2018).

Structures are written as SMILES.

In this data set the test system is multi-drug resistant tumor cell line MES-SA. The data set is described as follows: Inhibition of drug-resistant tumor cell line, Cell Titer-Glo cell viability; therapeutic index against MRC5 cells. The data set is classed as cell-based, human. The conditions noted are these: ratio of EC50 for MRC5 cell to EC50 for MES-SA cell. Here is the method:
The activity of example compounds to multi-drug resistant tumor cell line MES-SA was evaluated.
Experimental materials: DMEM high-glucose cell culture media (Hyclone Company), fetal calf serum (FBS) (Gibco Company), penicillin and streptomycin were purchased from North China Pharmaceutical Co., Ltd, phosphate buffer saline (PBS) was purchased from Gibco Company, Cell Titer-Glo® cell viability detection reagent was purchased from Promega Company, pancreatin and dimethylsulfoxide (DMSO) were products of Sigma Company. MES-SA cell line (human uterine sarcoma cell line) was purchased from ATCC. MRC5 cell (human embryonic lung fibroblast) was purchased from ATCC.
The cells were inoculated on a 96-well plate with white wall and penetrative bottom (Costar) in amount of 5000 cells per well, cultured at condition of 37° C., 5% CO2 for 24 h. The compounds to be tested were dissolved with DMSO and diluted to 100 mM, to obtain mother liquids of the compounds.
DMEM culture solution containing 2% FBS was used to diluted the compounds, in which concentration gradients were 3, and concentration range was 100 μM to 0.046 μM. The compounds in various dilution degrees were added to the cultured cells on the 96-well plate, 100 μl per well. Culture was performed at 37° C., CO2 for 72 h, supernatant was discarded, and cell viability detection test was performed.
AfterCell Titer-Glo® reaction buffer solution was mixed with isometric substrate, the mixture was added to 96-well plate, 100 μl per well. Cell lysis was induced by horizontally shaking for 4 min. Reaction signal was stabilized by balancing at room temperature for 15 min. Chemiluminescence units in each well of the 96-well plate were detected by using chemiluminescence detector.
Inhibition rates at different dilution degrees of each compound were calculated according to chemiluminescence value of each well, and Origin 8.0 software was used for S-type curve fitting of each compound, and for calculating EC50 value. The ratio of EC50 value of compound for MRC5 cell to EC50 value of compound for MES-SA cell was used as therapeutic index for the compound.
(ATP-based viability assays read luminescence as a measure of living cells.)

On to `CO[C@H]1C[C@@H]2CC[C@@H](C)[C@@](O)(O2)C(=O)C(=O)N2CCCC[C@H]2C(=O)O[C@H]([C@H](C)C[C@@H]2CC[C@@H](OC(=O)C[n+]3ccccc3)[C@H](OC)C2)CC(=O)[C@H](C)/C=C(\C)[C@@H](O)[C@@H](OC)C(=O)[C@H](C)C[C@H](C)/C=C/C=C/C=C/1C.[Br-]` [Example 10, 42-O-carbonylmethyl-(pyridine bromide salt-1-yl)-rapamycin], for which the Therapeutic index is given as 3.4.

`CO[C@H]1C[C@@H]2CC[C@@H](C)[C@@](O)(O2)C(=O)C(=O)N2CCCC[C@H]2C(=O)O[C@H]([C@H](C)C[C@@H]2CC[C@@H](OC(=O)C[n+]3csc(C)c3C)[C@H](OC)C2)CC(=O)[C@H](C)/C=C(\C)[C@@H](OC(=O)C[n+]2csc(C)c2C)[C@@H](OC)C(=O)[C@H](C)C[C@H](C)/C=C/C=C/C=C/1C.[Br-].[Br-]` [Example 4, 31,42-O-carbonylmethyl-(4,5-dimethyl-thiazole bromide salt-3-yl)-rapamycin]: the Therapeutic index is greater than 787.2. Take `CO[C@H]1C[C@@H]2CC[C@@H](C)[C@@](O)(O2)C(=O)C(=O)N2CCCC[C@H]2C(=O)O[C@H]([C@H](C)C[C@@H]2CC[C@@H](OC(=O)C[n+]3ccccc3)[C@H](OC)C2)CC(=O)[C@H](C)/C=C(\C)[C@@H](OC(=O)C[n+]2ccccc2)[C@@H](OC)C(=O)[C@H](C)C[C@H](C)/C=C/C=C/C=C/1C.[Br-].[Br-]` [Example 7, 31,42-O-carbonylmethyl-(pyridine bromide salt-1-yl)-rapamycin]: the Therapeutic index is listed as greater than 442.7. On to `CO[C@H]1C[C@@H]2CC[C@@H](C)[C@@](O)(O2)C(=O)C(=O)N2CCCC[C@H]2C(=O)O[C@H]([C@H](C)C[C@@H]2CC[C@@H](OC(=O)C[n+]3cccc(C)c3)[C@H](OC)C2)CC(=O)[C@H](C)/C=C(\C)[C@@H](OC(=O)C[n+]2cccc(C)c2)[C@@H](OC)C(=O)[C@H](C)C[C@H](C)/C=C/C=C/C=C/1C.[Br-].[Br-]` [Example 9, 31,42-O-carbonylmethyl-(3-methyl-pyridine bromide salt-1-yl)-rapamycin], for which the Therapeutic index was 12.1. Consider `CO[C@H]1C[C@@H]2CC[C@@H](C)[C@@](O)(O2)C(=O)C(=O)N2CCCC[C@H]2C(=O)O[C@H]([C@H](C)C[C@@H]2CC[C@@H](OC(=O)C[n+]3cccc(O)c3)[C@H](OC)C2)CC(=O)[C@H](C)/C=C(\C)[C@@H](OC(=O)C[n+]2cccc(O)c2)[C@@H](OC)C(=O)[C@H](C)C[C@H](C)/C=C/C=C/C=C/1C.[Br-].[Br-]` [Example 8, 31,42-O-carbonylmethyl-(3-hydroxy-pyridine bromide salt-1-yl)-rapamycin], for which the Therapeutic index is greater than 1441.6. Turning to `CO[C@H]1C[C@@H]2CC[C@@H](C)[C@@](O)(O2)C(=O)C(=O)N2CCCC[C@H]2C(=O)O[C@H]([C@H](C)C[C@@H]2CC[C@@H](O)[C@H](OC)C2)CC(=O)[C@H](C)/C=C(\C)[C@@H](OC(=O)C[n+]2ccc(C)cc2)[C@@H](OC)C(=O)[C@H](C)C[C@H](C)/C=C/C=C/C=C/1C.[Br-]` [Example 17, 31-O-carbonylmethyl-(4-methyl-pyridine bromide salt-1-yl)-rapamycin], the Therapeutic index is greater than 317.7. As for `CO[C@H]1C[C@@H]2CC[C@@H](C)[C@@](O)(O2)C(=O)C(=O)N2CCCC[C@H]2C(=O)O[C@H]([C@H](C)C[C@@H]2CC[C@@H](OC(=O)C[n+]3cccc(O)c3)[C@H](OC)C2)CC(=O)[C@H](C)/C=C(\C)[C@@H](O)[C@@H](OC)C(=O)[C@H](C)C[C@H](C)/C=C/C=C/C=C/1C.[Br-]` [Example 12, 42-O-carbonylmethyl-(3-hydroxy-pyridine bromide salt-1-yl)-rapamycin], the Therapeutic index is reported as greater than 146.5. As for `CO[C@H]1C[C@@H]2CC[C@@H](C)[C@@](O)(O2)C(=O)C(=O)N2CCCC[C@H]2C(=O)O[C@H]([C@H](C)C[C@@H]2CC[C@@H](OC(=O)C[n+]3ccc(C)cc3)[C@H](OC)C2)CC(=O)[C@H](C)/C=C(\C)[C@@H](OC(=O)C[n+]2ccc(C)cc2)[C@@H](OC)C(=O)[C@H](C)C[C@H](C)/C=C/C=C/C=C/1C.[Br-].[Br-]` [Example 14, 31,42-O-carbonylmethyl-(4-methyl-pyridine bromide salt-1-yl)-rapamycin], the Therapeutic index is listed as greater than 2136.8. To `CO[C@H]1C[C@@H]2CC[C@@H](C)[C@@](O)(O2)C(=O)C(=O)N2CCCC[C@H]2C(=O)O[C@H]([C@H](C)C[C@@H]2CC[C@@H](OC(=O)C[n+]3cscc3C)[C@H](OC)C2)CC(=O)[C@H](C)/C=C(\C)[C@@H](OC(=O)C[n+]2cscc2C)[C@@H](OC)C(=O)[C@H](C)C[C@H](C)/C=C/C=C/C=C/1C.[Br-].[Br-]` [Example 1, 31,42-O-carbonylmethyl-(4-methyl-thiazole bromide salt-3-yl)-rapamycin] belongs greater than 259.8; to `CO[C@H]1C[C@@H]2CC[C@@H](C)[C@@](O)(O2)C(=O)C(=O)N2CCCC[C@H]2C(=O)O[C@H]([C@H](C)C[C@@H]2CC[C@@H](O)[C@H](OC)C2)CC(=O)[C@H](C)/C=C(\C)[C@@H](OC(=O)C[n+]2ccccc2)[C@@H](OC)C(=O)[C@H](C)C[C@H](C)/C=C/C=C/C=C/1C.[Br-]` [Example 16, 31-O-carbonylmethyl-(pyridine bromide salt-1-yl)-rapamycin], greater than 364.8; to `CO[C@H]1C[C@@H]2CC[C@@H](C)[C@@](O)(O2)C(=O)C(=O)N2CCCC[C@H]2C(=O)O[C@H]([C@H](C)C[C@@H]2CC[C@@H](OC(=O)C[n+]3csc(C)c3C)[C@H](OC)C2)CC(=O)[C@H](C)/C=C(\C)[C@@H](O)[C@@H](OC)C(=O)[C@H](C)C[C@H](C)/C=C/C=C/C=C/1C.[Br-]` [Example 5, 42-O-carbonylmethyl-(4,5-dimethyl-thiazole bromide salt-3-yl)-rapamycin], greater than 1371.1. To `CO[C@H]1C[C@@H]2CC[C@@H](C)[C@@](O)(O2)C(=O)C(=O)N2CCCC[C@H]2C(=O)O[C@H]([C@H](C)C[C@@H]2CC[C@@H](O)[C@H](OC)C2)CC(=O)[C@H](C)/C=C(\C)[C@@H](OC(=O)C[n+]2cccc(C)c2)[C@@H](OC)C(=O)[C@H](C)C[C@H](C)/C=C/C=C/C=C/1C.[Br-]` [Example 15, 31-O-carbonylmethyl-(3-methyl-pyridine bromide salt-1-yl)-rapamycin] belongs greater than 331.5.

For the molecule `CO[C@H]1C[C@@H]2CC[C@@H](C)[C@@](O)(O2)C(=O)C(=O)N2CCCC[C@H]2C(=O)O[C@H]([C@H](C)C[C@@H]2CC[C@@H](OC(=O)C[n+]3cscc3C)[C@H](OC)C2)CC(=O)[C@H](C)/C=C(\C)[C@@H](O)[C@@H](OC)C(=O)[C@H](C)C[C@H](C)/C=C/C=C/C=C/1C.[Br-]` [Example 2, 42-O-carbonylmethyl-(4-methyl-thiazole bromide salt-3-yl)-rapamycin], the Therapeutic index was greater than 1811.9.

Turning to `CO[C@H]1C[C@@H]2CC[C@@H](C)[C@@](O)(O2)C(=O)C(=O)N2CCCC[C@H]2C(=O)O[C@H]([C@H](C)C[C@@H]2CC[C@@H](OC(=O)C[n+]3ccc(C)cc3)[C@H](OC)C2)CC(=O)[C@H](C)/C=C(\C)[C@@H](O)[C@@H](OC)C(=O)[C@H](C)C[C@H](C)/C=C/C=C/C=C/1C.[Br-]` [Example 13, 42-O-carbonylmethyl-(4-methyl-pyridine bromide salt-1-yl)-rapamycin], the Therapeutic index is reported as greater than 1559.0. For `CO[C@H]1C[C@@H]2CC[C@@H](C)[C@@](O)(O2)C(=O)C(=O)N2CCCC[C@H]2C(=O)O[C@H]([C@H](C)C[C@@H]2CC[C@@H](O)[C@H](OC)C2)CC(=O)[C@H](C)/C=C(\C)[C@@H](OC(=O)C[n+]2csc(C)c2C)[C@@H](OC)C(=O)[C@H](C)C[C@H](C)/C=C/C=C/C=C/1C.[Br-]` [Example 6, 31-O-carbonylmethyl-(4,5-dimethyl-thiazole bromide salt-3-yl)-rapamycin], the Therapeutic index is given as greater than 455.1. On to `CO[C@H]1C[C@@H]2CC[C@@H](C)[C@@](O)(O2)C(=O)C(=O)N2CCCC[C@H]2C(=O)O[C@H]([C@H](C)C[C@@H]2CC[C@@H](OC(=O)C[n+]3cccc(C)c3)[C@H](OC)C2)CC(=O)[C@H](C)/C=C(\C)[C@@H](O)[C@@H](OC)C(=O)[C@H](C)C[C@H](C)/C=C/C=C/C=C/1C.[Br-]` [Example 11, 42-O-carbonylmethyl-(3-methyl-pyridine bromide salt-1-yl)-rapamycin], for which the Therapeutic index is recorded as greater than 1888.7.

Regarding `CO[C@H]1C[C@@H]2CC[C@@H](C)[C@@](O)(O2)C(=O)C(=O)N2CCCC[C@H]2C(=O)O[C@H]([C@H](C)C[C@@H]2CC[C@@H](O)[C@H](OC)C2)CC(=O)[C@H](C)/C=C(\C)[C@@H](OC(=O)C[n+]2cscc2C)[C@@H](OC)C(=O)[C@H](C)C[C@H](C)/C=C/C=C/C=C/1C.[Br-]` [Example 3, 31-O-carbonylmethyl-(4-methyl-thiazole bromide salt-3-yl)-rapamycin], the Therapeutic index is greater than 1501.1.
